Reference: PubChem BioAssay AID2685 (National Center for Advancing Translational Sciences (NCATS), 2010)
Screen size: about 320,000 compounds; about 2,100 (0.66%) were called active. This list was built around the results that the source calls inconclusive (neither active nor inactive); the mix of calls is not that of the screen. Calls come from the whole dose curve; as a rule, active = well fitted inhibition curve with a large enough effect in the signal ratio, with a control signal flat (not every such curve was filed as active); inconclusive = small, poorly fitted or top-dose-only effect, or effect the other way, or a change in a side signal; inactive = flat fitted curve, though single readings scatter; the % refers to the signal ratio. Potencies beside an inconclusive call are fits to weak or partial responses and may not hold up.

Experiment: qHTS Assay for Lipid Storage Modulators in Drosophila S3 Cells
Details: BODIPY lipid droplet fluorescence, 18-24 h, cells fed with added oleic acid; lipid storage change, negative = inhibition: at 46.1 µM (top of the series) unless noted
Summary of the method: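 Drosophila S3 cells loaded with oleic acid (400 uM, as added) and compounds at several concentrations; lipid droplets imaged by 488-nm laser-scanning cytometry, 500–530 nm intensity and object ratio to cell channel. Percent activity normalized to 20 uM Triacsin C.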
% is set by controls: 0 for no effect and ±100 for the full control effect; potency is the fitted concentration of half-maximal effect.

Row | SMILES | lipid storage change, negative = inhibition | Potency | outcome
1 | NCCCC(=O)OC1N=C(c2ccccc2Cl)c2cc(Br)ccc2NC1=O (stereo not drawn) | inconclusive: 75.6% |  | 
2 | CCOc1ccc(CN2CCCC(C(=O)c3ccccc3OC)C2)cc1 (stereo not drawn) | inconclusive: -66.6% |  | 
3 | CCCc1[nH]nc2c1C1(C(=O)N(CC(N)=O)c3ccccc31)C(C(=O)OC)=C(N)O2 (stereo not drawn) | inconclusive: 7.54% |  | 
4 | O=c1c2ccccc2nc(-c2cccs2)n1-c1cnccn1 | inconclusive: 30.6% |  | 
5 | CCOP(=O)(OCC)C(Nc1cccc(C)c1)c1ccc(F)cc1 (stereo not drawn) |  | inconclusive: 0.517 µM [falling, full curve] | 
6 | Cc1ccc2nsnc2c1-n1c(C)nc2ccccc2c1=O | inconclusive: 21.8% |  | 
7 | O=c1c2ccccc2ncn1-c1ccc([N+](=O)[O-])c(C(F)(F)F)c1 | inactive: 12.7% |  | 
8 | CC/C(CC(c1ccccc1)c1c(O)c2ccccc2oc1=O)=N\NC(N)=S (stereo not drawn) |  | inconclusive: 7.31 µM [activator, partial curve] | 
9 | COc1ccc(CC(C)NCCc2ccc(OC)c(OC)c2)cc1 (stereo not drawn) |  |  | inactive
10 | COc1cccc(CNC(=O)Cn2c(=O)oc3cc(S(=O)(=O)N4CCCCC4)ccc32)c1 |  | inconclusive: 23.1 µM [falling, partial curve, poor fit] | 
11 | OCCNc1c2c(nc3ccccc13)CCCC2 | inconclusive: -1.42% |  | 
12 | O=C(COc1ccccc1Cl)N1CCCC(N2CCN(c3ccc(F)cc3)CC2)C1 (stereo not drawn) |  |  | inactive
13 | c1ccc2nc(N3CCNCC3)ccc2c1 | inconclusive: -0.0801% |  | 
14 | CC(C)C(=O)c1cn(Cc2ccccc2C#N)c2ccccc12 | inconclusive: 89.8% |  | 
15 | COc1ccc(-n2c(-c3ccc(C)cc3)nc3ccccc3c2=O)cc1 |  | inconclusive: 29.1 µM [cytotoxic, single point] | 
16 | CC(C)c1ccc(N=Nc2c(O)[nH]c(=O)[nH]c2=O)cc1 | inconclusive: 5.36% |  | 
17 | Cc1ccc2c(c1)=C/C(=C\c1c(O)[nH]c(=S)[nH]c1=O)C(=O)N=2 | inactive: 3.85% |  | 
18 | CCOCCN1CCN(c2nnc3n2-c2ccc(Cl)cc2C(c2ccccc2Cl)=NC3)CC1 |  | inconclusive: 20.6 µM [activator, partial curve, poor fit] | 
19 | CSc1ncc(/C=C2/C(=O)NC(=O)N(c3ccc(C)cc3)C2=O)cn1 | inactive: 7.12% |  | 
20 | O=C(c1cccs1)C1CN2CCC1CC2 (stereo not drawn) | inconclusive: 2.99% |  | 
21 | CN(C)c1ccc(/C=C2/C(=O)NC(=O)N(CCc3ccc(F)cc3)C2=O)cc1 | inconclusive: -7.54% |  | 
22 | O=C1NC(=O)N(Cc2ccccc2)C(=O)/C1=C/c1cnn(-c2ccccc2)c1 | inconclusive: 5.2% |  | 
23 | CN1C(=O)N(C)C(=O)C2(Sc3ccccc3C2=O)C1=O | inconclusive: -39.4% |  | 

Fetched by structure from the list above (2):
Row | SMILES | lipid storage change, negative = inhibition | Potency | outcome
5 | CCOP(=O)(OCC)C(Nc1cccc(C)c1)c1ccc(F)cc1 (stereo not drawn) |  | inconclusive: 0.517 µM [falling, full curve] | 
17 | Cc1ccc2c(c1)=C/C(=C\c1c(O)[nH]c(=S)[nH]c1=O)C(=O)N=2 | inactive: 3.85% |  | 
